The source of these data is patent US11180761.

Chains of the proteins cited; added tags and fusions are not shown. Residues count along the entry.
UniProt P16234, 24-524: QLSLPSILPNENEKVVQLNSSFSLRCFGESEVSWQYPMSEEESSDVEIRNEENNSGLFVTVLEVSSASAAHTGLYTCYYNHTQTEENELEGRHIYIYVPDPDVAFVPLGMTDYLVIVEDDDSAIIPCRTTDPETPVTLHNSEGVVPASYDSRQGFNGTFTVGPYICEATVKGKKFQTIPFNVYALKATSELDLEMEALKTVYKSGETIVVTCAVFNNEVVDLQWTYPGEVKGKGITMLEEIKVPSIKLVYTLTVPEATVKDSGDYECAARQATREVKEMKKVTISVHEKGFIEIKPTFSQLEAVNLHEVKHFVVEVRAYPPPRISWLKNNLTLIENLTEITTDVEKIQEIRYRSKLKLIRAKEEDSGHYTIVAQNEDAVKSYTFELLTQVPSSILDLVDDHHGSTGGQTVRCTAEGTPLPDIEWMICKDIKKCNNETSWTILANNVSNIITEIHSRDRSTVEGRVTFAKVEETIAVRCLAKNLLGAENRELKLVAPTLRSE

This series concerns the target PDGFR-alpha (PDGFRA) extracellular domain (UniProt P16234). Briefly: SELEX. The note with it: 2'-F pyrimidines (2'-F U and 2'-F C); clone from pool after 12 rounds; 30 mM Tris-HCl, 150 mM NaCl, 1.5 mM MgCl2, 2 mM DTT, 1% BSA, room temperature; no individual affinity given; purified recombinant protein; protein details: His tag, Sino Biological 10556-H08H.

The exact form of at least one protein or probe is not confirmed.

“GGGAGAGCGGAAGCGUGCUGGGCCUAUUGCAUCUUUCUGUUAUUUCCGAAUCCGUCCCGACUGUCAUAACCCAGAGGUGAUGGAUCCCCC [PDR9]”: the selection result is “selected”.
